Results as given in patent publication US20200262922A1.
No constants are given. Whether binding was seen depends on the method and setting. Some binding calls cover weakened binding; strength is not graded here.

The chains behind the UniProt entries cited, without tags or fusion partners. Residues count along the entry.
UniProt P16410, residues 36-161: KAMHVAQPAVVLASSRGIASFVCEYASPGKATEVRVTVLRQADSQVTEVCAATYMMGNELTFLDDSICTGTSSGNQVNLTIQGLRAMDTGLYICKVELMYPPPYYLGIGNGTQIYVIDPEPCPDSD

Target: CTLA4 (cytotoxic T lymphocyte associated antigen 4), antigen of the binding ELISA (UniProt P16410)
Assay: binding ELISA potency of stored formulation samples

B1: anti-CTLA4 antibody (CDRs of SEQ ID NO: 35-40 on an IgG1 backbone; VH SEQ ID NO: 88, VL SEQ ID NO: 48) (antibody, V domains shown)
VH: EVQLVESGGGLVQPGGSLRLSCAASGFTFSDNWMNWVRQAPGKGLEWLAQIRNKPYNYETYYSASVKGRFTISRDDSKNSVYLQMNSLKTEDTGVYYCTAQFAYWGQGTLVTVSS
VL: DIQMTQSPSSLSASVGDRVTITCRTSENIYGGLNWYQRKPGKSPKLLIYGATNLASGVSSRFSGSGSGTDYTLTISSLQPEDVATYYCQNVLRSPFTFGSGTKLEIK
- binding: binds
